According to article PMC10281466:
Results are given in words; binding and its absence hold for the method and conditions named. In cells and extracts the contact can be indirect. A yes stands for co-enrichment or nearness to the bait. Other partners may have been found.

B1: CABLES1 (protein, UniProt Q8TDN4 1-633)
chain: MAAAAAAATTAACSSGSAGTDAAGASGLQQPPPQPQPQPAAAAPAQPPPEPPRKPRMDPRRRQAALSFLTNISLDGRLPPQDAEWGGGEEGGAAKPGAGGACGARTRFSLLAAAERGGCIALAAPGTPAAGLAAGSGPCLPQPSSLPPLIPGGHATVSGPGVARGFASPLGAGRASGEQWQPPRPAPLAACAQLQLLDGSGAAGQEELEEDDAFISVQVPAAAFLGSGTPGSGSGSRGRLNSFTQGILPIAFSRPTSQNYCSLEQPGQGGSTSAFEQLQRSRRRLISQRSSLETLEDIEENAPLRRCRTLSGSPRPKNFKKIHFIKNMRQHDTRNGRIVLISGRRSFCSIFSVLPYRDSTQVGDLKLDGGRQSTGAVSLKEIIGLEGVELGADGKTVSYTQFLLPTNAFGARRNTIDSTSSFSQFRNLSHRSLSIGRASGTQGSLDTGSDLGDFMDYDPNLLDDPQWPCGKHKRVLIFPSYMTTVIDYVKPSDLKKDMNETFKEKFPHIKLTLSKIRSLKREMRKLAQEDCGLEEPTVAMAFVYFEKLALKGKLNKQNRKLCAGACVLLAAKIGSDLKKHEVKHLIDKLEEKFRLNRRELIAFEFPVLVALEFALHLPEHEVMPHYRRLVQSS

Target: Flag-CDK5 purified from A549 cells (human) (UniProt Q00535)
Assay: affinity purification with mass spectrometry; Flag-CDK5 purified from A549 cells; associated proteins analysed by mass spectrometry

Row | Molecule | binding
1 | STAT3 (from UniProt P40763 1-770) | binds
2 | B1 | binds
